Results deposited as PubChem BioAssay AID1259308 (NCATS, 2017)
The deposit covers about 59,000 reagents; shown is an unselected part. In the full data, about 1,510 (2.6%) were called active. 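Calls use total luciferase alone and ignore viability, so some active siRNAs may act by altering cell number.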 Reagents against one gene are numbered here. Not all columns of the deposit are shown.

Screen: 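Knock-downs that increase output of a recombinant reporter protein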 (primary screen)
System: human HEK293 embryonic kidney cells stably expressing firefly luciferase (HEK-CMV-Luc2-Hygro)
Reagent: single siRNA against human genes, 0.8 pmol siRNA per well
Time to read-out: 72 h
Measurement: 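Luciferase light (ONE-Glo) measured on one replicate plate set and viability (CellTiter-Glo) on the other, scaled to a negative control siRNA, with robust z-scores and luciferase per cell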
Direction: total luciferase, z-score and total luciferase, % of control: higher = more reporter protein produced
Active means: 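Active when the median/MAD z-score for overall luciferase is greater than 3; a gene was taken forward for validation with new siRNAs if at least two of its three siRNAs passed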
Meaning of the calls: active = raised luciferase; inactive = no rise

target gene,reagent no.,"total luciferase, z-score","total luciferase, % of control",Call
KLHL25,1,1.86,119,inactive
KLHL25,2,-0.153,78.8,inactive
KLHL25,3,0.399,89.8,inactive
RPS26P40,1,-3.16,19.1,inactive
RPS26P40,2,-3.13,19.6,inactive
RPS26P40,3,-2.71,28,inactive
NUP210P1,1,0.825,98.3,inactive
NUP210P1,2,1.45,111,inactive
NUP210P1,3,0.369,89.2,inactive
RMND5B,1,1.23,106,inactive
RMND5B,2,-0.706,67.8,inactive
RMND5B,3,0.116,84.2,inactive
GSTM5,1,-0.262,76.7,inactive
GSTM5,2,0.171,85.3,inactive
GSTM5,3,4.82,178,active
MPRIP,1,-1.87,44.8,inactive
MPRIP,2,-0.199,77.9,inactive
MPRIP,3,1.25,107,inactive
COX17,1,-0.785,66.3,inactive
COX17,2,-1.03,61.5,inactive
COX17,3,-0.322,75.5,inactive
HLA-F,1,0.715,96.1,inactive
HLA-F,2,0.282,87.5,inactive
HLA-F,3,-0.733,67.3,inactive
EXOSC3,1,0.785,97.5,inactive
EXOSC3,2,-0.428,73.4,inactive
EXOSC3,3,-0.478,72.4,inactive
MYH11,1,-0.804,65.9,inactive
MYH11,2,-2.03,41.5,inactive
MYH11,3,-0.12,79.5,inactive
CT47C1,1,-1.1,60.1,inactive
CT47C1,2,-0.518,71.6,inactive
CT47C1,3,2.45,131,inactive
ZFYVE1,1,-1.3,56,inactive
ZFYVE1,2,0.041,82.7,inactive
ZFYVE1,3,0.245,86.8,inactive
ATP11A,1,0.246,86.8,inactive
ATP11A,2,-0.507,71.8,inactive
ATP11A,3,0.561,93,inactive

Reagents listed so far called active (1):
target gene,reagent no.,"total luciferase, z-score","total luciferase, % of control",Call
GSTM5,3,4.82,178,active
